These results are taken from article PMC7482815.

Amino acid sequences for entries named in this document (tags omitted). A change or cut given only in a name is not applied to a line headed by its entry. Chains listed by the source or under a name are the forms on record and can include a tag or linker. Residues count along the entry.
UniProt Q93009: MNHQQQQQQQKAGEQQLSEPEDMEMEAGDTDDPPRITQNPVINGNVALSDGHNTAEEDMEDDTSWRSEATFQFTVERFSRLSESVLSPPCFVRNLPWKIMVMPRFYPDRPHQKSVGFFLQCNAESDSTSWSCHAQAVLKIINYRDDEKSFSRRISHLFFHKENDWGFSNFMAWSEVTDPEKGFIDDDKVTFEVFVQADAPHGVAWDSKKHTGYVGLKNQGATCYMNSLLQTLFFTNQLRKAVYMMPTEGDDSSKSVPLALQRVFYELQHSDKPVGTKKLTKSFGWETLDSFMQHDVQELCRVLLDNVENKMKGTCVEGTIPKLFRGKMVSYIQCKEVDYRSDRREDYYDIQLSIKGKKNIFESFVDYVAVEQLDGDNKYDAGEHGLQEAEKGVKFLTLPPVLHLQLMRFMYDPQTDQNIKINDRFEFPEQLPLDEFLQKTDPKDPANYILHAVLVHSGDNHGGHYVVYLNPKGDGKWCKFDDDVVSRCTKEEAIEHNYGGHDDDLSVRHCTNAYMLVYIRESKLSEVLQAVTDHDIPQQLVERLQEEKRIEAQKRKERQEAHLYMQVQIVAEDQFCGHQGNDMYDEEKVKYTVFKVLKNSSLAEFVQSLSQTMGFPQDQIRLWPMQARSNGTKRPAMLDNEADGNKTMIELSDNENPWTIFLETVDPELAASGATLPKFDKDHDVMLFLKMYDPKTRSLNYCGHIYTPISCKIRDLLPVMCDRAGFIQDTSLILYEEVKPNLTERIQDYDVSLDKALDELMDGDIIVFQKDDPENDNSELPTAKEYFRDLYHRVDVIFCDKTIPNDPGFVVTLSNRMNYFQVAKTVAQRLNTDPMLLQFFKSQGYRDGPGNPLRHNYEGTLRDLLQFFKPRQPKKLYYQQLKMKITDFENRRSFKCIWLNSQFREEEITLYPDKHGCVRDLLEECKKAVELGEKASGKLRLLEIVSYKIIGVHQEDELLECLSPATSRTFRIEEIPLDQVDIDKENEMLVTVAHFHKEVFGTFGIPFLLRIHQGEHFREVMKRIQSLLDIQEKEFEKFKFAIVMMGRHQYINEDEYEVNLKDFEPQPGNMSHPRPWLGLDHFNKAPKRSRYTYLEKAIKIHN
FLAG-tagged MATH domain of USP7: residues 68-195 of Q93009
UniProt P60953: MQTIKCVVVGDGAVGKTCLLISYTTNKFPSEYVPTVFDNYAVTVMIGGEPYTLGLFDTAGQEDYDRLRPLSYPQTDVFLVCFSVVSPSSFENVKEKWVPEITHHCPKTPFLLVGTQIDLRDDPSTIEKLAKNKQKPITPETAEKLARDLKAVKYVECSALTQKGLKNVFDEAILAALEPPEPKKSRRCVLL

Results are given in words; binding and its absence hold for the method and conditions named. In cells and extracts the contact can be indirect. Some results given as binding are weak or reduced against the parent protein; the word gives no strength.

Assay [1] concerns the target T1, epithelial cell transforming sequence 2 (ECT2), endogenous (human (endogenous in MCF-7, HeLa)) (UniProt Q9H8V3).
T1 sequence: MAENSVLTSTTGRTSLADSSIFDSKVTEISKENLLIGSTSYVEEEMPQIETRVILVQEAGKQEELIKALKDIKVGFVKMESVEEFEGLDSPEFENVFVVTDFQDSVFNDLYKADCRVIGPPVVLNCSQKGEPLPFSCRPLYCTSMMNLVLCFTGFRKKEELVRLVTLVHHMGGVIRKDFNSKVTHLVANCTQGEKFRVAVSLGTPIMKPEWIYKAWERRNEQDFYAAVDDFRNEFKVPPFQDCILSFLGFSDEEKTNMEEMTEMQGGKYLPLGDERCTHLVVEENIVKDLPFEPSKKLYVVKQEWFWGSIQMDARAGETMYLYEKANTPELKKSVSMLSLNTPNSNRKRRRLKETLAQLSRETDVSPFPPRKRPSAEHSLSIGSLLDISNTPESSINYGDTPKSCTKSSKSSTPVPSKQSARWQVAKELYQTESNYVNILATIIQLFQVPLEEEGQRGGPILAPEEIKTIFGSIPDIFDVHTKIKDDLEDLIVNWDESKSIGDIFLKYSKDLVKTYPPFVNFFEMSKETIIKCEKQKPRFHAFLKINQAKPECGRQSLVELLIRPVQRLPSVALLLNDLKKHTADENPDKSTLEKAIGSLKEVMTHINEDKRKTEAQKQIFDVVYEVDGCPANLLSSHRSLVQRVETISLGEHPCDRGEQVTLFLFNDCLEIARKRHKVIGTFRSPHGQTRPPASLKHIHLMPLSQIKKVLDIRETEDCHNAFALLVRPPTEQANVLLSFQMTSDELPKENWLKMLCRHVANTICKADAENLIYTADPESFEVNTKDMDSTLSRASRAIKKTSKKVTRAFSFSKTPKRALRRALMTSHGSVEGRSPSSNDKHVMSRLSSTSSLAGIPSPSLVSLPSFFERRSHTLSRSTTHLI
The assay is described as follows: co-IP; endogenous proteins, whole cell lysates of MCF-7 and HeLa cells in NETN buffer (50 mM Tris-HCl pH 8.0, 150 mM NaCl, 0.2% Nonidet P-40, 2 mM EDTA), antibodies against USP7 or ECT2, protein G magnetic beads, 4 °C, immunoblot. On the technique in general: A western blot detects proteins with antibodies after separation by electrophoresis.

Assay [2] has as its target ubiquitin-specific protease USP7, endogenous (human (endogenous in MCF-7, HeLa, U2OS)) (UniProt Q93009). Described as above.
The target of assay [3] is T1, epithelial cell transforming sequence 2 (ECT2), endogenous (human (endogenous in MCF-7, HeLa)). The assay is described as follows: co-IP; nuclear fraction of MCF-7 cells (nuclear/cytosol separation kit), endogenous proteins.
Assay [4] shares this target. The assay can be described thus: co-IP; cytosolic fraction of MCF-7 cells (nuclear/cytosol separation kit), endogenous proteins.
Assay [5] concerns the target FLAG-tagged MATH domain of USP7 (UniProt Q93009). The assay is described as follows: co-IP; whole cell lysates of HeLa cells transfected with ECT2/wt, ECT2/GEF^mt or FLAG-tagged deletion mutants of USP7 or ECT2; the partner detected by immunoblot.

Take “cell division cycle 42 (CDC42), endogenous (from UniProt P60953 1-191)”: the binding entry in assay [1] is on record as “binds”; in assay [2] it was “no binding”.

Turning to “ubiquitin-specific protease USP7, endogenous (from UniProt Q93009 1-1102)”, the binding result in assay [3] is listed as “binds”; in assay [4], “no binding (condition: cytosolic fraction of MCF-7 cells)”; in assay [1], “binds”.

B1: epithelial cell transforming sequence 2 (ECT2), endogenous (protein, UniProt Q9H8V3-4 1-883)
chain: MAENSVLTSTTGRTSLADSSIFDSKVTEISKENLLIGSTSYVEEEMPQIETRVILVQEAGKQEELIKALKDIKVGFVKMESVEEFEGLDSPEFENVFVVTDFQDSVFNDLYKADCRVIGPPVVLNCSQKGEPLPFSCRPLYCTSMMNLVLCFTGFRKKEELVRLVTLVHHMGGVIRKDFNSKVTHLVANCTQGEKFRVAVSLGTPIMKPEWIYKAWERRNEQDFYAAVDDFRNEFKVPPFQDCILSFLGFSDEEKTNMEEMTEMQGGKYLPLGDERCTHLVVEENIVKDLPFEPSKKLYVVKQEWFWGSIQMDARAGETMYLYEKANTPELKKSVSMLSLNTPNSNRKRRRLKETLAQLSRETDVSPFPPRKRPSAEHSLSIGSLLDISNTPESSINYGDTPKSCTKSSKSSTPVPSKQSARWQVAKELYQTESNYVNILATIIQLFQVPLEEEGQRGGPILAPEEIKTIFGSIPDIFDVHTKIKDDLEDLIVNWDESKSIGDIFLKYSKDLVKTYPPFVNFFEMSKETIIKCEKQKPRFHAFLKINQAKPECGRQSLVELLIRPVQRLPSVALLLNDLKKHTADENPDKSTLEKAIGSLKEVMTHINEDKRKTEAQKQIFDVVYEVDGCPANLLSSHRSLVQRVETISLGEHPCDRGEQVTLFLFNDCLEIARKRHKVIGTFRSPHGQTRPPASLKHIHLMPLSQIKKVLDIRETEDCHNAFALLVRPPTEQANVLLSFQMTSDELPKENWLKMLCRHVANTICKADAENLIYTADPESFEVNTKDMDSTLSRASRAIKKTSKKVTRAFSFSKTPKRALRRALMTSHGSVEGRSPSSNDKHVMSRLSSTSSLAGIPSPSLVSLPSFFERRSHTLSRSTTHLI
Consider B1, for which the binding entry in assay [5] was “no binding”; in assay [2], “binds”.
